PubChem BioAssay AID602196 | INSERM – 2012
Screen: 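Knock-downs that protect lung cancer cells from cisplatin or sensitise them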. System: human A549 lung cancer cells. Reagents: siRNA pair against human genes. Time to read-out: 48 h transfection before cisplatin; time from cisplatin to read-out not stated. Challenge: cisplatin at a dose killing half of control-siRNA cells; exact dose and duration not given. Read-out: 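Cisplatin cell death as a shift from the 50% death seen with control siRNA; siRNAs toxic or growth-blocking alone scored 0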. Scale: two-siRNA summed score (-2 to +2): higher = both siRNAs protect from cisplatin killing; -2 means both sensitise. Rule for the call: 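siRNAs harmful alone (LDH or WST-1) get 0; others get +1 for less and -1 for more cisplatin killing; genes are active when the two siRNAs give the same sign, summing to ±2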. Meaning of the calls: active = both siRNAs shift cisplatin killing the same way; inactive = no consistent shift, or siRNA harmful alone.
The deposit covers about 23,000 reagents; this is a part drawn at random. Over the whole deposit, 455 (2%) got an active call. 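Active includes both protection and sensitisation; some change values fall well beyond the stated -50 to +50 range.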 Unmarked entries are inactive. Further read-outs or replicates are left out here. Not stated in the record: the amount of reagent.

Silencing of LOC388444 [SID131501212] came out at: two-siRNA summed score (-2 to +2) = -1. Against PDS5B (PDS5 cohesin associated factor B) [SID131507418] the deposit lists two-siRNA summed score (-2 to +2) = 0. Silencing of LOC203235 [SID131517169] gave: two-siRNA summed score (-2 to +2) = 0. With knock-down of NPBWR1 (neuropeptides B and W receptor 1) [SID131521712], the screen gave two-siRNA summed score (-2 to +2) = 1. TSPAN14 (tetraspanin 14) [SID131514700] showed two-siRNA summed score (-2 to +2) = 0. Against GREM1 (gremlin 1, DAN family BMP antagonist) [SID131511006], the values are two-siRNA summed score (-2 to +2) = 0.

After knock-down of IGBP1 (immunoglobulin binding protein 1) [SID131501372] the results were two-siRNA summed score (-2 to +2) = -1. Knock-down of LOC440685 [SID131518616] gave: two-siRNA summed score (-2 to +2) = 0. Silencing of PARP6 (poly(ADP-ribose) polymerase family member 6) [SID131509836] came out at: two-siRNA summed score (-2 to +2) = 0. Silencing of CREB3L3 (cAMP responsive element binding protein 3 like 3) [SID131517842] resulted in: two-siRNA summed score (-2 to +2) = 0. Knock-down of SLC27A1 [SID131522810] came out at: two-siRNA summed score (-2 to +2) = 1. With knock-down of HS6ST1P1 (heparan sulfate 6-O-sulfotransferase 1 pseudogene 1) [SID131519841], the screen gave two-siRNA summed score (-2 to +2) = 1.

With knock-down of ARRB2 (arrestin beta 2) [SID131507265], the record shows two-siRNA summed score (-2 to +2) = 0. ARHGAP29 (Rho GTPase activating protein 29) [SID131506285] showed two-siRNA summed score (-2 to +2) = 0.

Not a retest: an excerpt of the list.
TSPAN14 (tetraspanin 14) [SID131514700]: two-siRNA summed score (-2 to +2) = 0
GREM1 (gremlin 1, DAN family BMP antagonist) [SID131511006]: two-siRNA summed score (-2 to +2) = 0
IGBP1 (immunoglobulin binding protein 1) [SID131501372]: two-siRNA summed score (-2 to +2) = -1

Additional records follow:
SCML2 (Scm polycomb group protein like 2) [SID131511048] showed two-siRNA summed score (-2 to +2) = 0. MYL7 (myosin light chain 7) [SID131503123] showed two-siRNA summed score (-2 to +2) = 0. After knock-down of ZNF579 (zinc finger protein 579) [SID131510173] the results were two-siRNA summed score (-2 to +2) = 0. For ARL8A (ARF like GTPase 8A) [SID131520491], the values are two-siRNA summed score (-2 to +2) = 1. Against TAAR1 (trace amine associated receptor 1) [SID131505577] the deposit lists two-siRNA summed score (-2 to +2) = 0. Against LOC388065 [SID131511775], the values are two-siRNA summed score (-2 to +2) = 0.

Against FBXL16 (F-box and leucine rich repeat protein 16) [SID131521169] the deposit lists two-siRNA summed score (-2 to +2) = 1.
